According to US6300109:

Target: T1, R.LlaAI (Lactococcus lactis subsp. cremoris W9) (UniProt P50177)
T1 sequence: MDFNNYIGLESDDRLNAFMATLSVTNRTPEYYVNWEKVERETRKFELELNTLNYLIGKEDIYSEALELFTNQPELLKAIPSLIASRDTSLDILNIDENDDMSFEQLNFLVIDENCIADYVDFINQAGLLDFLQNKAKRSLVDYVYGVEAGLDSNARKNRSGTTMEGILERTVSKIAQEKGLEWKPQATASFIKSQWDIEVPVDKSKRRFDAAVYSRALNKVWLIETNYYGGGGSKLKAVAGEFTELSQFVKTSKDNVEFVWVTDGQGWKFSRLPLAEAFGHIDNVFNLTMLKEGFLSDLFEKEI
Assay: enzyme reaction in vitro
Conditions: purified native protein, only the motif is given, variant of GATC recognition site

GATC (double strand)
activity on this sequence (N6-methyladenine at A (dam)): not active
activity on this sequence (methylated by LlaAI methylases): not active

Construct, isoform or probe ends are uncertain for at least one entry. No signal at the amounts used counts as a negative. Where a protein sequence is shown, tags need not be part of it.
